Data source: PubChem BioAssay AID504793 (Drosophila RNAi Screening Center, 2011)

Aim: 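Genes required for cells to halt at G2/M after double-strand DNA breaks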 (primary screen)
Cells: Drosophila S2R+ cells
Reagent: long dsRNA against Drosophila genes, about 0.25 µg dsRNA per well
Timing: 4 days of dsRNA, then 4 hours of drug before read-out
Conditions: doxorubicin 0.5 µM for 4 hours to cause double-strand breaks, in cells also given a low, harmless dose of dsRNA against nbs to sensitise the assay
Read-out: 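Per-well count of mitotic cells stained for phospho-histone H3 after doxorubicin exposure, used as mitotic index; counts are raw and not normalised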
Direction: mitotic cells: higher = more cells in mitosis, weaker G2 arrest
Rule for the call: 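Genes are called active only when high mitotic counts were reproduced with independent dsRNAs and mitosis was checked for delay without damage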
Calls: active = confirmed in follow-up tests; inactive = not confirmed
The screen tested about 23,000 reagents; this is a random part of those with a known target gene and a result. In the full data, 62 (0.27%) got an active call. 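Calls come from follow-up tests whose scores are not deposited, so confirmed genes may have low counts here; counts are not normalised per plate.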 The raw values are shown without normalisation. A plus sign joins genes that one reagent is predicted to hit.

gene knocked down	PubChem SID	mitotic cells, replicate 1	call
eIF2Bepsilon	SID104198561	11	inactive
CG14383	SID104194633	4	inactive
Sirup	SID104182823	6	inactive
Sirup	SID104207842	6	inactive
Spt20	SID104202350	13	inactive
Spt20	SID104204335	5	inactive
CG31510	SID104193974	7	inactive
CG17075	SID104180275	8	inactive
CG17075	SID104205049	6	inactive
CG5823	SID104195673	6	inactive
CG13625	SID104194419	9	inactive
trbd	SID104196286	7	inactive
trbd	SID104206543	7	inactive
CG15706	SID104186369	8	inactive
bdl	SID104180063	4	inactive
Npc2h	SID104194089	4	inactive
Nep2	SID104191918	4	inactive
Nep2	SID104201161	5	inactive
PQBP1	SID104194185	2	inactive
trx	SID104196881	9	inactive
trx	SID104216056	12	inactive
dap	SID104187393	6	inactive
snky	SID104189630	9	inactive
CG1142	SID104192323	1	inactive
CG1142	SID104206339	4	inactive
Ser8	SID104186683	8	inactive
Ser8	SID104204014	5	inactive
CG14797	SID104197747	12	inactive
CAH6	SID104195297	10	inactive
Reph	SID104180426	5	inactive
Reph	SID104201615	13	inactive
Reph	SID104207961	4	inactive
CG5641	SID104195644	8	inactive
CG2070	SID104186606	5	inactive
CG3662	SID104180418	4	inactive
CG9691	SID104198233	12	inactive
CG17207	SID104194990	7	inactive
thoc5	SID104184119	7	inactive
kra	SID104192112	3	inactive
GPHR	SID104186867	12	inactive
Scp2	SID104192958	4	inactive
Scp2	SID104196646	8	inactive
Vha100-5	SID104181967	3	inactive
Vha100-5	SID104204983	5	inactive
CG32523	SID104200302	3	inactive
fs(1)Ya	SID104202415	21	inactive
Rab9	SID104183073	7	inactive
Ts	SID104180587	11	inactive
Ts	SID104201714	14	inactive
sqz	SID104196772	9	inactive
sqz	SID104207515	7	inactive
CG11786	SID104194181	7	inactive
CG42254 (retired record)	SID104185986	4	inactive
CG14017	SID104182140	3	inactive
sr	SID104193076	8	inactive
sr	SID104204337	10	inactive
pug	SID104196828	6	inactive
pug	SID104208440	10	inactive
eas	SID104200121	7	inactive
eas	SID104207979	3	inactive
CG2059	SID104197995	9	inactive
Nna1	SID104199196	7	inactive
Nna1	SID104205533	9	inactive
Gal	SID104182926	9	inactive
Gal	SID104203263	7	inactive
Diedel	SID104194109	7	inactive
Diedel	SID104206067	2	inactive
twr	SID104192283	8	inactive
Pgam5-2	SID104184070	2	inactive
sky	SID104182175	8	inactive
sky	SID104183006	6	inactive
sky	SID104183007	5	inactive
CG1523	SID104194825	2	inactive
CG1523	SID104204859	2	inactive
lap	SID104192420	9	inactive
lap	SID104206759	5	inactive
HSPC300	SID104202239	12	inactive
RpL10	SID104191739	2	inactive
CG42331	SID104194425	7	inactive
CG42331	SID104195918	14	inactive
CG42331	SID104204474	5	inactive
Cdk7	SID104198243	10	inactive
Cdk7	SID104202684	8	inactive
Archease	SID104195817	8	inactive
gas	SID104184313	8	inactive
CG3091	SID104198066	7	inactive
CG15754	SID104199511	11	inactive
CG15754	SID104203755	7	inactive
HGTX	SID104189111	4	inactive
HGTX	SID104190973	2	inactive
Uros2	SID104196297	3	inactive
Mkk4	SID104196531	2	inactive
Mkk4	SID104207657	4	inactive
CG42820 + CG42819	SID104182056	8	inactive
CG42820 + CG42819	SID104182057		inactive
CG9863	SID104207035	6	inactive
CG8475	SID104182883	9	inactive
XRCC1	SID104198521	9	inactive
XRCC1	SID104207024	4	inactive
CG8012	SID104190743	2	inactive
Cpr97Eb	SID104194915	11	inactive
aqz	SID104196362	4	inactive
aqz	SID104203588	11	inactive
CG14000	SID104182124	4	inactive
D	SID104190924	11	inactive
D	SID104203913	4	inactive
CG1416	SID104183498	3	inactive
prtp	SID104199596	11	inactive
prtp	SID104201947	7	inactive
Pak	SID104192394	12	inactive
Pak	SID104202659	10	inactive

A stretch from the list above:
gene knocked down	PubChem SID	mitotic cells, replicate 1	call
CG11786	SID104194181	7	inactive
CG42254 (retired record)	SID104185986	4	inactive
CG14017	SID104182140	3	inactive
sr	SID104193076	8	inactive
sr	SID104204337	10	inactive
pug	SID104196828	6	inactive
pug	SID104208440	10	inactive
eas	SID104200121	7	inactive
eas	SID104207979	3	inactive
CG2059	SID104197995	9	inactive
Nna1	SID104199196	7	inactive
